Results from PubChem BioAssay AID1794844 (National Center for Advancing Translational Sciences (NCATS), 2023).
Among all 2,800 compounds or so, fewer than 10 were called active. Inconclusive results (about 7%) are left out. Calls come from the whole dose curve; as a rule, active = well fitted inhibition curve with a large enough effect; inconclusive = small, poorly fitted or top-dose-only effect; inactive = no such curve, though single readings can be large or run the other way. The list shows a part of the results.

The chains behind the UniProt entries cited, without tags or fusion partners. Where a name states a change or a piece, a line headed by the entry shows the natural chain unless it says otherwise.
UniProt C7C422: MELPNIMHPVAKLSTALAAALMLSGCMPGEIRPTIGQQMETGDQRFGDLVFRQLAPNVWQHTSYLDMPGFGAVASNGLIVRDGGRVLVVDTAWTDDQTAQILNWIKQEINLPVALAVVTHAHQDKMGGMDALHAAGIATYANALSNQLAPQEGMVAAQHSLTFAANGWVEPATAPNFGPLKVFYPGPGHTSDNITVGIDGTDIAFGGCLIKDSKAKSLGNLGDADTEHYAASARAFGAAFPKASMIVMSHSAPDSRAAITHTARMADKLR

biological target: Metallo-beta-lactamase type 2 (Klebsiella pneumoniae) (UniProt C7C422); test: qHTS to identify inhibitors of the New Delhi Metallo-beta-lactamase (NDM): Nitrocefin screen against the machine-based learning selections.; note: % of control where 0% means no effect; conditions: NDM-1 enzyme, nitrocefin hydrolysis, absorbance 485 nm; activity, negative = inhibition: at the top concentration
In short: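 Hydrolysis by 2 nM NDM-1 was followed by absorbance after >30 min compound preincubation in HEPES pH 7.0 buffer with 1 uM Zn2SO4. For nitrocefin (16.7 uM, 15 min, 485 nm) and meropenem (50 uM, 30 min, 300 nm), each substrate ran on separate plates.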

activity, negative = inhibition, inactive:
COc1ccc(CN2CCC[C@H]2c2nc(-c3ccc(N(C)C)nc3)no2)c(O)c1 0.0487% [at 57.5 µM], CC(=O)N1CCC(N[C@@H]2CO[C@H](CNC(=O)c3ccccc3)[C@H]2O)CC1 3.48% [at 57.5 µM], Oc1cccc(-c2cc(-c3ccncc3)c3cncn3c2)c1 -12.6% [at 76.7 µM], COc1cccc(NC(=O)N2CCN3C(=O)N(Cc4ccc(C)cc4)C[C@H]3C2)c1 1.56% [at 57.5 µM], CN(C)CCCNC(=O)C1CCCN(S(=O)(=O)c2ccccc2)CCC(=O)NCC1 (stereo not drawn) 3.76%, C[C@@H]1CN(C(=O)c2cccc(-c3ncc[nH]3)c2)CC[C@@]1(O)C1CCOCC1 -13.6%, COc1cccc(-c2cccc(CCOc3cnc4c(ccn4CC(=O)O)c3)c2)c1 -1.17% [at 57.5 µM], COc1ccccc1C(=O)Nc1ccnn1C1CCN(C(=O)CCN)CC1 162%, CCOC(=O)C1CCN(C(=O)c2ccc3c(c2)N(CC)C2CCCCCN2C3=O)CC1 (stereo not drawn) 1.67%, CC1=C[C@@H](CN2CCN(CCO)CC2)[C@H](C(C)C)C[C@H]1Cc1nnc(-c2ccccc2F)o1 0.709%, CC(=O)N1CCCCC1c1nc(-c2ccccc2)n[nH]1 (stereo not drawn) -14.9%, O=C(Cc1ccc(Cl)cc1)N1CCC([C@@H]2CNC[C@H]2CO)CC1 -11.5%, COC[C@H]1CCCN1Cc1nc(C2(O)CCN(Cc3ccccc3C(F)(F)F)CC2)cs1 3.93%, C[C@@H](NC(=O)N1CCOC[C@H]1c1ncc(-c2ccc(F)cc2)[nH]1)c1ccccc1 6.54% [at 57.5 µM], C=CCN(C)C(=O)C[C@@H]1c2nc(NC(=O)c3cccs3)sc2C[C@@H]2[C@](C)(CO)[C@H](O)CC[C@]21C 7.87%, COc1cccc(NC(=O)N[C@H](C)c2onc(-c3ccc(F)cc3)c2C(=O)O)c1 -18.1% [at 57.5 µM], COC(=O)C1=CN(CC(=O)NCc2cccc(OC)c2)S(=O)(=O)N=C1C -0.101%, CC(C)C[C@@H]1N[C@H](C(=O)N2CCC(O)(c3ccccc3)CC2)Cc2cn(C)c3cccc1c23 -1.88%, COc1ccc([C@H]2C[C@@H](O)[C@@H](O)[C@@H]2NC(=O)c2cc3ccccc3s2)cc1 -1.9% [at 57.5 µM], CC(C)(C)CC(=O)N1CC[C@H]2CC(=O)N(Cc3cccnc3)CC[C@H]2C1 2.57% [at 57.5 µM], O=C(O)c1cccc(CN2CC(CNc3ccccc3)C3(C2)CN(c2ccccc2)C3)c1 (stereo not drawn) -5.65% [at 57.5 µM], COc1ccc(CNC[C@H]2COCc3nc4cc(F)ccc4n32)cn1 5.58% [at 57.5 µM], CC(=O)N1CCC(NC[C@H]2COCc3nc4ccc(C)cc4n32)CC1 0.467% [at 57.5 µM], CCc1nc(C)c(C(=O)N2CCC(c3[nH]ncc3-c3ccccc3C)CC2)o1 -1.6%, COc1ccc(-c2cnc(Nc3cccc(N[S+](C)(=O)[O-])c3)c3c2CCO3)cn1 4.16% [at 57.5 µM], O=C(N[C@@H]1COCC[C@H]1OCc1ccccn1)c1cnc(C2CC2)nc1 -0.82%, O=C(c1ccc(Cn2cccn2)o1)N1CCCC2(CCC(=O)N(C3CC3)C2)C1 (stereo not drawn) -4.73%, Cc1oc(C(O)c2ccccc2)nc1C(=O)Nc1ccncc1 (stereo not drawn) 1.71% [at 57.5 µM], CCOCCn1nc(C)cc1C(=O)N1C[C@@H](C)[C@](O)(C2CC2)C1 -0.533%, CC1(CCCCc2ccccc2)COc2ccc(C(=O)Nc3cccnc3)cc2N1 (stereo not drawn) 3.47% [at 57.5 µM], NCc1cc(NC(=O)c2ccccn2)cc(C(=O)N2CC[C@H]3CNC[C@H]32)c1 -3.78%, Cc1cccc(CN2CCCC3(CCN(Cc4cccc(O)c4)C3)C2)c1 (stereo not drawn) 4.09%, O=C(Cc1c[nH]c2ncc(-c3ccccc3)cc12)NC1CCOCC1 5.95% [at 57.5 µM], CSCC(=O)N[C@H]1CCN2C(=O)c3cc(-c4ccccc4F)ccc3NC(=O)[C@H]12 3.31% [at 57.5 µM], COc1ccc([C@@H](NC(=O)c2ccc3cccc(F)c3n2)C2CC(O)C2)cn1 (stereo partly drawn) 6.06%, COc1ccc2c(c1)CCN=C2C[C@H]1CN(C(=O)c2cccs2)CC[C@H]1CC(=O)O -6.85% [at 57.5 µM], COc1ccc(C(=O)Nc2nc3c(s2)C[C@@H]2[C@](C)(CO)[C@H](O)CC[C@@]2(C)[C@@H]3CC(=O)NC2CCCC2)cc1 -14.1%, CN1CCC(NC[C@H]2O[C@@H](CO)[C@@H](O)[C@H]2N2CCN(c3ncccn3)CC2)CC1 -19.5%, CN(Cc1ccccc1)Cc1cn([C@H]2CO[C@H]3[C@@H]2OC[C@@H]3NCC2CCCCC2)nn1 2.96% [at 57.5 µM], COc1c(F)cccc1C(=O)N1CCc2onc(-c3ccccc3F)c2C1 2.21%, COC(=O)[C@H](Cc1ccc(OC)cc1)NC(=O)[C@H]1CN(C(=O)c2cccnc2)CCN1S(C)(=O)=O 13.5%, COc1cccc(N2CCN(C(=O)c3cn4ccnc(-c5ccccc5)c4n3)CC2)c1 21.4%, Fc1ccc(NC(=S)N[C@H]2CO[C@H]3[C@@H]2OC[C@@H]3n2nnnc2-c2ccc3c(c2)OCO3)cc1 -4.19%, Cc1noc2c(-c3cccnc3NCc3cnccn3)cc(-c3ccccc3)nc12 7.57% [at 57.5 µM], O=C(NCc1nc(-c2ncccn2)no1)C1CC2(CCNCC2)CN1 (stereo not drawn) -16.6%, COc1ccc(C[C@H](NC(=O)C2=C[C@@H](NC(=O)CSCC(=O)O)[C@@H](O)[C@H](O)C2)C(N)=O)cc1 -4.16%, CSCCCN1CCC(Oc2ccc3ncccc3c2)(C(=O)O)CC1 -6.55%, Cc1cc2c(cc1C(=O)N1CCC(O)(C(=O)O)CC1)OCCO2 -5.86%, CC1(C(=O)NCc2cccnc2)COCc2cnc(Nc3ccccc3)nc21 (stereo not drawn) -5.85% [at 57.5 µM], CS(=O)(=O)N[C@H]1C[C@H]2C(=O)Nc3ccc(-c4cccc(C(F)(F)F)c4)cc3C(=O)N2C1 -5.61%, OC1(CNCc2nc(-c3ccncc3)n[nH]2)CNCCOC1 (stereo not drawn) -6.58%, CC(C)N1CC[C@@H]2[C@H]1C(=O)NC[C@H](CCC(=O)N1CCC(O)CC1)N2C -0.938% [at 57.5 µM], O=C(NC[C@H]1Cn2ccnc2CO1)C1CCCC1 -0.411% [at 76.7 µM], Fc1ccccc1Nc1cnc2ccc(-c3ccccc3)nn12 -15% [at 57.5 µM], CC(C)C[C@@H]1N[C@H](C(=O)NCc2ccccn2)Cc2c[nH]c3cccc1c23 -9.86% [at 57.5 µM], CCNC(=O)c1cccnc1OC1CCN(C(=O)CC)C1 (stereo not drawn) 0.709%, O=C(CC1CCCCC1)N1CCC2(CC1)NC(=O)N(c1ccc(F)cc1)N2 2.35%, CC1=C[C@@H](CNC(=O)NC2CCCCC2)[C@H](C(C)C)C[C@H]1Cc1nc2ccc(C)cc2[nH]1 3.34% [at 57.5 µM], CC(=O)Nc1cccc(-c2ccc3c(n2)c(=O)ncn3Cc2ccccc2)c1 0.433% [at 57.5 µM], COc1cccc(NC(=O)N[C@H]2[C@H](O)[C@@H](N3CCN(c4ccccc4)CC3)[C@@H]3OC[C@H]2O3)c1 -5.21%, CN1C(=O)CCC2(CNC(=O)c3ccco3)CCC=C12 (stereo not drawn) -7.33%, COc1cccc(CN2CCNc3cnc(Nc4ccccc4)cc3C2)c1 5.03% [at 57.5 µM], O=C(Cc1c[nH]c2ncc(-c3cccnc3)cc12)NC1CCC1 23.7% [at 57.5 µM], O=C(Cc1c[nH]c2ncc(-c3ccccc3)cc12)Nc1cccnc1 6.69% [at 57.5 µM], O=C(c1ccc(N2CC3CC(C2)[C@H]2CCCC(=O)N2C3)nc1)N1CCN(c2cccc(Cl)c2)CC1 (stereo partly drawn) 4.67%, O=C(Cc1c[nH]c2ncc(-c3cccnc3)cc12)NCCc1ccccn1 -11.2% [at 57.5 µM], COc1ccc(C(=O)NCc2nnc3c(-c4nc(C5CC5)no4)cccn23)c(C)c1 -0.888%, O=C1CCC2(CCCO2)CCN1Cc1ccccc1 (stereo not drawn) 53.7%, COCCNC(=O)[C@@H]1CCC[C@@H](NC(=O)C2CC2)CN(C)C(=O)C1 -4.15% [at 57.5 µM], O=C(C[C@@H]1O[C@H](CNC(=O)c2ccco2)[C@@H](O)[C@H]1O)NCc1ccc(F)cc1 22.7% [at 57.5 µM], COc1cccc(F)c1C(=O)N1C[C@H](N)C[C@H]1C(=O)NC(C)C -5.94%, O=C(NC(c1ccccc1)c1ccccc1)c1cnc2c(c1)N(C(=O)Cc1ccc(O)cc1)CCC2 -20.4%, CS(=O)(=O)c1ccc(CNC[C@H]2Cn3ccnc3CO2)cc1 -0.233% [at 57.5 µM], O=C(NC1CCCCC1)N1C[C@@H]2C[C@H](C1)c1c(NS(=O)(=O)c3cccc(F)c3)ccc(=O)n1C2 3.92%, COCCN1CC2(CCCN(C(=O)CCc3cccc(F)c3)C2)CCC1=O (stereo not drawn) 0.4%, COc1ccc(CN2CCN(c3nc4ccccc4o3)CC2CCO)cc1C (stereo not drawn) -0.956%, COc1ccccc1C(=O)N1CC[C@H]2COC(=O)N2c2cc(C)ccc2C1 -4.4% [at 57.5 µM], COc1ccc(C[C@H](NC(=O)C2=C[C@@H](NC(=O)c3ccc(OC)cc3)[C@@H](O)[C@H](O)C2)C(N)=O)cc1 3.92%, CC(C)N[C@@H]1CO[C@H](CNC(=O)c2ccncc2)[C@H]1O -3.58% [at 76.7 µM], COCc1ccc(C(=O)N2CC[C@@H](c3ccc4c(c3)OCO4)[C@H](O)C2)o1 -1.18%, CN1C(=O)C(CC(=O)N2CCCNCC2)(Cc2ccccc2)c2ccccc21 (stereo not drawn) -13.9%, O=C(Cc1csc(-c2ccccc2)n1)N1CCCC(c2ccn[nH]2)C1 (stereo not drawn) 0.175%, CC(=O)N1CCC(Oc2ccccc2-c2nc(-c3ccccc3)no2)C1 (stereo not drawn) -7.27%, O=C(N[C@H]1[C@H](O)[C@H](O)C[C@@H]1c1cccnc1)c1ccccn1 -2.52% [at 57.5 µM], O=C(O)c1cc(-c2cccc(CO)c2)cc(S(=O)(=O)N2CCOCC2)c1 -1.05%, C[C@H]1[C@@H]2[C@@H](O)C([C@H](C)C(=O)NCc3cccs3)CC[C@@]2(C)CC[C@@H]1NC(=O)c1cncnc1 (stereo partly drawn) 1.41%, O=C(O)c1ccc(CC2CCN(C(=O)c3cccc(-n4cccn4)c3)C2)cc1 (stereo not drawn) -1.12%, CCc1c(C)nn(CC(=O)N2CCC3(CCNC(=O)CC3)CC2)c1C -4.25%, O=C([C@@H]1C[C@H](Oc2ccccc2)CN1C(=O)c1cccs1)N1CCOCC1 3.58%, COCc1cc(C[C@@H]2CC[C@H](O)[C@@H](CNS(=O)(=O)c3ccccc3)O2)no1 -0.232% [at 57.5 µM], Cc1cc(C(=O)N[C@@H]2C[C@H](Cn3cc(CN4CCS(=O)(=O)CC4)nn3)[C@@H](O)[C@H]2O)nn1C -17.9%, CCCn1ccc2oc(C)c(C(=O)NCc3ccc(OC)cc3)c2c1=O 0.463%, Cc1nn(C)c(C)c1CCC(=O)N[C@@H]1CN(c2ncccn2)C[C@H]1CO 4.86%
